No constants are given. Whether binding was seen depends on the method and setting. Some entries that bind do so weakly or less than the wild type.
Columns and labels:
[1] = target: Programmed cell death protein 1 (PD-1), human (human) (UniProt Q15116); assay: SPR
[2] = target: Programmed cell death protein 1 (PD-1), human (human) (UniProt Q15116); assay: SPR epitope binning
[3] = target: Programmed cell death protein 1 (PD-1), human (human) (UniProt Q15116); assay: SPR, three concentrations
[4] = target: Programmed cell death protein 1 (PD-1), human (human) (UniProt Q15116); assay: SPR, five concentrations
[5] = target: Programmed cell death protein 1 (PD-1), human (human) (UniProt Q15116); assay: SPR competition with PD1AB6
[6] = target: Programmed cell death protein 1 (PD-1), human (human) (UniProt Q15116); assay: ELISA
[7] = target: Programmed cell death protein 1 (PD-1), human (human) (UniProt Q15116); assay: SPR (FIG. 2B)

Chains of the proteins cited; added tags and fusions are not shown. Lines headed by an entry give the natural chain unless they say otherwise; changes in a name come on top.
UniProt Q15116: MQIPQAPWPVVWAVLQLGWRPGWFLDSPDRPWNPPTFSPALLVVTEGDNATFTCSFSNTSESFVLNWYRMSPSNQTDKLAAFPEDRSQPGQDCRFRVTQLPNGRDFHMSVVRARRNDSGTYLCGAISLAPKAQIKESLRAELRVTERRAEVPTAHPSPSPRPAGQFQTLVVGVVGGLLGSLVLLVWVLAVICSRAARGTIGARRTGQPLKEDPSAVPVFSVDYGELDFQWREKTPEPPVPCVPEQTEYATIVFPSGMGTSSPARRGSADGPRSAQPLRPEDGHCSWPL

Binder | binding [1] | binding [4] | binding [5] | other results
1-C09-3 (antibody, V domains shown, From the in vitro scFv library of immunised mice) VH: QVQLQQPGAELVRPGTSVKLSCKASGYTFTSYWMHWVKERPGQGLEWIGVIDPSDSYTNYNQKFKDKATLTVDTSSSTAYMQLSSLTSEDSAVYYCARSPFDYWGQGTTLTVSS VL: DIQMTQSQKFMSTSVGDRVSVTCKASQNVGTNVAWYQQKPGQSPKALIYSASYRYSGVPDRFIGSGSGTDFTLTIRNVQSEDLAEYFCQQHNSYPFTFGGGTKLEIK | binds |  |  | 
1-C09-1 (antibody, V domains shown, From the in vitro scFv library of immunised mice) VH: QVQLQQPGTELVRPGTSVKMSCKASGYTFTSYWMHWVKQRPGQGLEWIGVIDPSDSYTQYNQKFKGKATLTVDTSSSTAYMQLSSLTSEDSAVYYCARSPFDYWGQGTTLTVSS VL: DIVMTQSQKFMSTSVGDRVSVTCKASQNVGTNVAWYQQKPGQSPKALIYSASYRYSGIPDRFTGSGSGTDFTLTISNVQSEDLADFFCQQYNSYPFTFGGGTKLEIK | binds |  |  | 
1-H01-1 (antibody, V domains shown, From the in vitro scFv library of immunised mice; also called clone 1-H01-1) VH: QVQLQQPGAELVKPGASVKMSCKASGYTFTSYWMHWVKQRPGQGLEWIGVIDPSNSYTIYNQKFKGKATLTVDTSSSTAYMQLSSLTSEDSAVYYCARSPFDYWGQGTTLTVSS VL: DVVMTQSQKFMSTSVGDRVSVTCKASQNVGTNVAWYQQKPGQSPKALIYSASYRYSGVPDRFTGSGSGTDFTLTIRNVQSEDLAEYFCQQHNSYPFTFGGGTKLEIK | binds |  |  | binding [2]: binds
2-D11-1 (antibody, V domains shown, From the in vitro scFv library of immunised mice) VH: EVQLQQPGAELVRPGTSVKLACKASGYTFNTYWMHWVNQRPGQGLEWIGVIDPSDSYTQYNQKFKGKATLTVDTSSSTAYMQLSSLTSEDSAVYYCARSPFDYWGQGTTLTVSS VL: DVQMTQSQKFMSTSVGDRVSVTCKASQNVGTNVAWYQQKPGQSPKALIYSASYRYSGVPDRFIGSGSGTDFTLTISNVQSEDLAEYFCQQHNSYPFTFGGGTKLEIK | binds |  |  | 
1-F09-1 (antibody, V domains shown, From the in vitro scFv library of immunised mice) VH: QVQLQQPGAEVVMPGASVKLSCKASGYTFTSYWMHWVKQRPGQGLEWIGVIDPSDSYTQYNQKFKGKATLTVDTSSSTAYMQLSSLTSEDSAVYYCARSPFDYWGQGTTLTVSS VL: DIQMNQSHKFMSTSVGDRVSITCKASQDVSTAVAWYQQKPGQSPKALIYSASNRYSGVPDRFIGSGSGTDFTLTIRNVQSEDLAEYFCQQHNSYPFTFGGGTKLEMK | binds |  |  | 
1-F12-1 (antibody, V domains shown, From the in vitro scFv library of immunised mice) VH: EVQLQQPGAELVRPGTSVKLSCKASGYTFTSYWMHWVKQRPGQGLEWIGVIDPSDSYTQYNQKFKGKATLTVDTSSSTAYMQLSSLTSEDSAVYYCARSPFDYWGQGTTVTVSS VL: DIVMTQSHKFMSTSVGDRVSITCKASQDVSTAVAWYQQKPGQSPKALIYSASYRYSGVPDRFTGSGSGTDFTLTISNVQAEDLAVYYCHQHNTYPFTFGGGTKLEIK | binds |  |  | 
7 (antibody, V domains shown, From phage panning of a naive antibody library; also called antibody 7; clone 7) VH: EVQLLESGGGLVQPGGSLRLSCAASGFPFGNYLMNWVRQAPGKGLEWVSVISGGGVSTYYADSVKGRFTISRDNSKNTLYLQMNSLRAEDTAVYYCARGPSSWPAFDVWGQGTLVTVSS VL: DIQMTQSPSSLSASVGDRVTITCRASETISNFLNWYQQKPGKAPKLLIYTTSSLQRGVPSRFSGSGSGTDFTLTISSLQPEDFATYYCQQSYSVPWTFGGGTKVEIK |  |  |  | binding [2]: binds; binding [3]: binds
43 (antibody, V domains shown, From phage panning of a naive antibody library; also called antibody 43; clone 43) VH: EVQLLESGGGLVQPGGSLRLSCAASGFTFSIHPMTWVRQAPGKGLEWVSLISTGGGSTYYADSVKGRFTISRDNSKNTLYLQMNSLRAEDTAVYYCASASVLGSGGYWSPGMDYWGQGTLVTVSS VL: DIQMTQSPSSLSASVGDRVTITCRASQSIDRFLNWYQQKPGKAPKLLIYGASNLPSGVPSRFSGSGSGTDFTLTISSLQPEDFATYYCQQSFSIPWTFGGGTKVEIK |  |  |  | binding [3]: binds
E2-B5-7_201 (antibody, V domains shown) VH: EVQLVQSGAEVKKPGATVKISCKASGYSLSDHYMHWVQQAPGKGLEWMGRIDPHSGATKYDPKFQGRVTITADTSTDTAYMELSSLRSEDTAVYYCARSGPVYHYGSSYVMDYWGQGTTVTVSS VL: DIVMTQSPDSLAVSLGERATINCKSGQSVFYSSNNKNYLAWYQQKPGQPPKLLIYWASTRESGVPDRFSGSGSGTDFTLTISSLQAEDVAVYYCQQYLYSWTFGQGTKLEIK |  | binds | binds | 
D4-A7-7_201 (antibody, V domains shown, also called clone D4-A7-7_201) VH: EVQLVQSGAEVKKPGATVKISCKASGYILTDHYMHWVQQAPGKGLEWMGRIDPHSGGIKYDPKFQGRVTITADTSTDTAYMELSSLRSEDTAVYYCARSGPVYHYGSSYVMDYWGQGTTVTVSS VL: DIVMTQSPDSLAVSLGERATINCKSGQSVFYSSNNKNYLAWYQQKPGQPPKLLIYWASTRESGVPDRFSGSGSGTDFTLTISSLQAEDVAVYYCQQYLYSWTFGQGTKLEIK |  | binds | binds | binding [2]: binds
E2-B5-6_201 (antibody, V domains shown) VH: EVQLVQSGAEVKKPGATVKISCKASGYSLSDHYMHWVQQAPGKGLEWMGRIDPHSGATKYDPKFQGRVTITADTSTDTAYMELSSLRSEDTAVYYCARSGPVHYYGSSYVMDYWGQGTTVTVSS VL: DIVMTQSPDSLAVSLGERATINCKSGQSVFYSSNNKNYLAWYQQKPGQPPKLLIYWASTRESGVPDRFSGSGSGTDFTLTISSLQAEDVAVYYCQQYLYSWTFGQGTKLEIK |  | binds | binds | 
E2-B5-7_211 (antibody, V domains shown) VH: EVQLVQSGAEVKKPGATVKISCKASGYSLSDHYMHWVQQAPGKGLEWMGRIDPHSGATKYDPKFQGRVTITADTSTDTAYMELSSLRSEDTAVYYCARSGPVYHYGSSYVMDYWGQGTTVTVSS VL: DIVMTQSPDSLAVSLGERATINCKSGQSVFYSSNNKNYLAWYQQKPGQPPKLLIYWADTRESGVPDRFSGSGSGTDFTLTISSLQAEDVAVYYCQQYLYSWTFGQGTKLEIK |  | binds | binds | 
27A5 (antibody, V domains shown, Antibody from a monoclonal hybridoma of immunised BALB/c mice) VH: QVTLKESGPGILQPSQTLSLTCSFSGFSLSTFGMGVGWIRQPSGKGLEWLAHIWWDADKYSTPALKSRLTISKDTSKNQVFLKIANVDTADTATYYCARIGRNYYFDYWGQGTTLTVSS VL: DIVMTQSPSSLAVSVGEKVTLTCKSSQTLLDSTNQKNYLAWYQQIPGQSPKLLIYWASTRESGVPDRFTGSGSGTDFTLTISSVKAEDLTVYYCQQYYTYPLTFGAGTKLELK |  |  |  | binding [6]: binds; binding [7]: binds

From patent US20240092909A1 (IBIO, published 2024)
